Source: US20240216372A1, “THERAPEUTICS FOR KELOIDS AND OTHER FIBROTIC DISORDERS” (Florida State University Research Foundation, Inc., priority 2022, published 2024)
“Also recorded” adds a separate entry of the source. At least one compound was matched to its structure with a doubt left.

Tested on: keloid dermal fibroblasts
Test: keloid fibroblast proliferation
Format: cell-based, human
Conditions: patient-derived keloid dermal fibroblasts

Nc1cc(N2CCCCC2)nc(N)[n+]1[O-] [Minoxidil]
effect on keloid fibroblast proliferation: blocks keloid fibroblast proliferation | sensitivity of keloid dermal fibroblasts to the drug (effective concentration range): low to sub-millimolar range; also recorded: low-to-submillimolar range
